In publication PMC3729527, “Redox-sensitive DNA binding by homodimeric Methanosarcina acetivorans MsvR is modulated by cysteine residues”:

Biological target: T1, MaMsvR (Methanosarcina acetivorans C2A) (UniProt Q8TQT2)
T1 sequence (looked up, limits assumed): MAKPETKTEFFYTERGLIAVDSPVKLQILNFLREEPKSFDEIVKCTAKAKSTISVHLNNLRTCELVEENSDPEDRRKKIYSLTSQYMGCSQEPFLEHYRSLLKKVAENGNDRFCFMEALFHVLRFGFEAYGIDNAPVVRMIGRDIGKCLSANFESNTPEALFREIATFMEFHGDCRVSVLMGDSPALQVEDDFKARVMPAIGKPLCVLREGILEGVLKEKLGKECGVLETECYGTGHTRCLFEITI
Assay: EMSA
Details: 5 mM DTT, 1 uM protein, 50 nM DNA; EMSA at room temperature, 10 nM DNA and 200 nM MsvR (50 nM DNA and 1 uM protein for 50 bp oligos), with or without 5 mM DTT; recombinant protein; protein details: N-terminal Strep-tag

“TATTTCAAACATGATTATTCGTAGTCACGCGAACGTTTTATATATTCAAA (double strand) [Ma PmsvR 50 bp]”: binds.

For at least one entry, the source does not settle the construct or the ends of the probe. At least one verdict rests on a figure or table, not on a statement of the authors. Tags and fusion partners may be left off the protein sequences shown.
